Results from article PMC5717001.
These are yes or no findings as the source states them, for the method shown. In cells and extracts the contact can be indirect. Some results given as binding are weak or reduced against the parent protein; the word gives no strength. Where a sequence is shown, tags or fusion partners need not be part of it.

Protein sequences, listed by entry. Tags and fused reporters are not part of them.
UniProt Q9Y4R8: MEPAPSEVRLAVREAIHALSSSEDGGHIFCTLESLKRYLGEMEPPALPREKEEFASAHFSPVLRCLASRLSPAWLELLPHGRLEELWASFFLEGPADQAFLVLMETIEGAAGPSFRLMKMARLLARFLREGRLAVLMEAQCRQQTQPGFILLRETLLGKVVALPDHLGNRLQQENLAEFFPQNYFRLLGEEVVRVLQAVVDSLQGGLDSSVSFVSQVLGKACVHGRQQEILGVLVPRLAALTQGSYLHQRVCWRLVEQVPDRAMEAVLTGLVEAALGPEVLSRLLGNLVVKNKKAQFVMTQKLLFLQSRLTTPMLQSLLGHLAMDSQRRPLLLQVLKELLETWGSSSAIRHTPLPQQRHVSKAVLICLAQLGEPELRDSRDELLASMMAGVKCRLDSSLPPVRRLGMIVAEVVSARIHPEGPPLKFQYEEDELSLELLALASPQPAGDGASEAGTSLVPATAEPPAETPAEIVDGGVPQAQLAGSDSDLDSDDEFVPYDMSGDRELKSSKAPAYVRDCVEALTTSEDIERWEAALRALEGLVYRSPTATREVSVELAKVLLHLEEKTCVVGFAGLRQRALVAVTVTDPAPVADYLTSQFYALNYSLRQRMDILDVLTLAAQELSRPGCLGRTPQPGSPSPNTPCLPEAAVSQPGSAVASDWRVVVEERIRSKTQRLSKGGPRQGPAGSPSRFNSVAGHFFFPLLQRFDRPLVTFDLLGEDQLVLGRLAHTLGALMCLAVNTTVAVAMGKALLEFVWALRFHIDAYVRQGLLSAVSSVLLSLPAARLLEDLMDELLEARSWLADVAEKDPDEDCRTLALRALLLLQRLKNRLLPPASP
UniProt O00311: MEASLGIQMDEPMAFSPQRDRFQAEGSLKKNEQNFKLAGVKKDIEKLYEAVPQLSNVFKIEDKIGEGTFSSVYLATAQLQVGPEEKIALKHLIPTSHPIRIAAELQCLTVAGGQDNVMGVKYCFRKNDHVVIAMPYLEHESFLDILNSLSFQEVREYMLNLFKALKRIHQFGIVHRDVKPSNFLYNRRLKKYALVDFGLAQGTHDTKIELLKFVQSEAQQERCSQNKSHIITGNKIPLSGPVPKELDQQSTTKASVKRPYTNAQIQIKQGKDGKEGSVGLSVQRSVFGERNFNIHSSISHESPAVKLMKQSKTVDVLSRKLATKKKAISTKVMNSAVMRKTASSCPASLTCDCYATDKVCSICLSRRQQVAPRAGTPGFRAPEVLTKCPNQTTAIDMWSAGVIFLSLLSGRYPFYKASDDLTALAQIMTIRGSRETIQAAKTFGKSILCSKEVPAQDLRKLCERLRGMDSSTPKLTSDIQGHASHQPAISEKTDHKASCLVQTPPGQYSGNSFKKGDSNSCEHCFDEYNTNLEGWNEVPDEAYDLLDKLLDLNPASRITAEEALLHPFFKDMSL

T1: Mre11 (from a transfected plasmid) (UniProt P49959)
T1 sequence: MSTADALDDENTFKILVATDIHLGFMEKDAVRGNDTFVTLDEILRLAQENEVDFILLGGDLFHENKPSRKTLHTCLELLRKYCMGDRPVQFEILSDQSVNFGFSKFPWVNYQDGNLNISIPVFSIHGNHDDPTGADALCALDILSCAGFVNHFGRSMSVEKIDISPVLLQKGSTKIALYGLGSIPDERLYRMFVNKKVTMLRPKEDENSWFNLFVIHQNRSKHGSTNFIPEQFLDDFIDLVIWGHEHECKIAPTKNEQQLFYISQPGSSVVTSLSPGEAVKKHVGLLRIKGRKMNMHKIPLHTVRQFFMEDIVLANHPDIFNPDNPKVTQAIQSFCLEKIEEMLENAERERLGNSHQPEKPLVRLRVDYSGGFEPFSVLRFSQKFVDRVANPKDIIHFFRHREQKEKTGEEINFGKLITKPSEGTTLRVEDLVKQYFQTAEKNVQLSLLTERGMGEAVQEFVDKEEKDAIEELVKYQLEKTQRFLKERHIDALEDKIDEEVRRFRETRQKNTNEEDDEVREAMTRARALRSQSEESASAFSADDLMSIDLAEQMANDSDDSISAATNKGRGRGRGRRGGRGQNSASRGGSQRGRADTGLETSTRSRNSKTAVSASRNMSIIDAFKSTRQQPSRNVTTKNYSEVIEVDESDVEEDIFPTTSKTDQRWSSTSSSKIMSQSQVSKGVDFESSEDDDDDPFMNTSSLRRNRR

B1: Myc-tagged Dbf4 (protein, UniProt Q9UBU7 1-674)
chain: MNSGAMRIHSKGHFQGGIQVKNEKNRPSLKSLKTDNRPEKSKCKPLWGKVFYLDLPSVTISEKLQKDIKDLGGRVEEFLSKDISYLISNKKEAKFAQTLGRISPVPSPESAYTAETTSPHPSHDGSSFKSPDTVCLSRGKLLVEKAIKDHDFIPSNSILSNALSWGVKILHIDDIRYYIEQKKKELYLLKKSSTSVRDGGKRVGSGAQKTRTGRLKKPFVKVEDMSQLYRPFYLQLTNMPFINYSIQKPCSPFDVDKPSSMQKQTQVKLRIQTDGDKYGGTSIQLQLKEKKKKGYCECCLQKYEDLETHLLSEQHRNFAQSNQYQVVDDIVSKLVFDFVEYEKDTPKKKRIKYSVGSLSPVSASVLKKTEQKEKVELQHISQKDCQEDDTTVKEQNFLYKETQETEKKLLFISEPIPHPSNELRGLNEKMSNKCSMLSTAEDDIRQNFTQLPLHKNKQECILDISEHTLSENDLEELRVDHYKCNIQASVHVSDFSTDNSGSQPKQKSDTVLFPAKDLKEKDLHSIFTHDSGLITINSSQEHLTVQAKAPFHTPPEEPNECDFKNMDSLPSGKIHRKVKIILGRNRKENLEPNAEFDKRTEFITQEENRICSSPVQSLLDLFQTSEEKSEFLGFTSYTEKSGICNVLDIWEEENSDNLLTAFFSSPSTSTFTGF
B2: Flag-tagged Dbf4 (protein, UniProt Q9UBU7 1-674)
chain: B1 chain

Experiments:
[1] = target: Flag-HCLK2 (human) (UniProt Q9Y4R8); assay: co-IP; 293T cells co-transfected with Myc-Cdc7, Flag-tagged Dbf4 or Myc-tagged Dbf4 and Flag-HCLK2; for Myc-Dbf4 also with or without UV (100 J/m^2), hydrogen peroxide (200 μM) or HU (2 mM)
[2] = target: T1, Mre11 (from a transfected plasmid); assay: co-IP; 293T cells co-transfected with Flag-tagged Cdc7, Myc-tagged Dbf4 and Mre11; immunoprecipitation with anti-Cdc7 and anti-Mre11 antibody, respectively

Molecule | binding [1] | binding [2]
Myc-Cdc7 (from UniProt O00311 1-574) (enzyme) | binds | 
Flag-tagged Cdc7 (from UniProt O00311 1-574) (enzyme) |  | binds
B1 | binds | binds
B2 | binds | 
